Results: paper doi:10.1101/2022.01.19.476979 (bioRxiv, 2022)
Results are given in words; binding and its absence hold for the method and conditions named. In cells and extracts the contact can be indirect. Binding calls can cover weak binding; strength is not graded here.

Target: RET, endogenous in human skin organoids (human (endogenous in human skin organoids))
Test: proximity ligation

binding: binds
B1: Siah1, endogenous in human skin organoids (enzyme, UniProt Q8IUQ4 1-282)
chain: MSRQTATALPTGTSKCPPSQRVPALTGTTASNNDLASLFECPVCFDYVLPPILQCQSGHLVCSNCRPKLTCCPTCRGPLGSIRNLAMEKVANSVLFPCKYASSGCEITLPHTEKADHEELCEFRPYSCPCPGASCKWQGSLDAVMPHLMHQHKSITTLQGEDIVFLATDINLPGAVDWVMMQSCFGFHFMLVLEKQEKYDGHQQFFAIVQLIGTRKQAENFAYRLELNGHRRRLTWEATPRSIHEGIATAIMNSDCLVFDTSIAQLFAENGNLGINVTISMC
